The record followed here is patent publication US3957788A (priority 1974, dated 1976).

Structures can show the parent of a compound that is named as a salt.

The data set is described as follows: in vivo. As to conditions: mouse, iv.

`CN1CC[C@]23c4c5ccc(O)c4O[C@H]2[C@@H](O)C=C[C@H]3[C@H]1C5` [compound 4, Morphine hydrochloride]: the selectivity ratio was determined as 33.1.
